The record followed here is paper PMC4817527.

Sequences of proteins named here, by UniProt entry; tags and fusion partners are left off. A change or cut given only in a name is not applied to a line headed by its entry. A line that says so, or that is headed by a name, gives the form on record, which may keep a tag or linker.
UniProt Q09472: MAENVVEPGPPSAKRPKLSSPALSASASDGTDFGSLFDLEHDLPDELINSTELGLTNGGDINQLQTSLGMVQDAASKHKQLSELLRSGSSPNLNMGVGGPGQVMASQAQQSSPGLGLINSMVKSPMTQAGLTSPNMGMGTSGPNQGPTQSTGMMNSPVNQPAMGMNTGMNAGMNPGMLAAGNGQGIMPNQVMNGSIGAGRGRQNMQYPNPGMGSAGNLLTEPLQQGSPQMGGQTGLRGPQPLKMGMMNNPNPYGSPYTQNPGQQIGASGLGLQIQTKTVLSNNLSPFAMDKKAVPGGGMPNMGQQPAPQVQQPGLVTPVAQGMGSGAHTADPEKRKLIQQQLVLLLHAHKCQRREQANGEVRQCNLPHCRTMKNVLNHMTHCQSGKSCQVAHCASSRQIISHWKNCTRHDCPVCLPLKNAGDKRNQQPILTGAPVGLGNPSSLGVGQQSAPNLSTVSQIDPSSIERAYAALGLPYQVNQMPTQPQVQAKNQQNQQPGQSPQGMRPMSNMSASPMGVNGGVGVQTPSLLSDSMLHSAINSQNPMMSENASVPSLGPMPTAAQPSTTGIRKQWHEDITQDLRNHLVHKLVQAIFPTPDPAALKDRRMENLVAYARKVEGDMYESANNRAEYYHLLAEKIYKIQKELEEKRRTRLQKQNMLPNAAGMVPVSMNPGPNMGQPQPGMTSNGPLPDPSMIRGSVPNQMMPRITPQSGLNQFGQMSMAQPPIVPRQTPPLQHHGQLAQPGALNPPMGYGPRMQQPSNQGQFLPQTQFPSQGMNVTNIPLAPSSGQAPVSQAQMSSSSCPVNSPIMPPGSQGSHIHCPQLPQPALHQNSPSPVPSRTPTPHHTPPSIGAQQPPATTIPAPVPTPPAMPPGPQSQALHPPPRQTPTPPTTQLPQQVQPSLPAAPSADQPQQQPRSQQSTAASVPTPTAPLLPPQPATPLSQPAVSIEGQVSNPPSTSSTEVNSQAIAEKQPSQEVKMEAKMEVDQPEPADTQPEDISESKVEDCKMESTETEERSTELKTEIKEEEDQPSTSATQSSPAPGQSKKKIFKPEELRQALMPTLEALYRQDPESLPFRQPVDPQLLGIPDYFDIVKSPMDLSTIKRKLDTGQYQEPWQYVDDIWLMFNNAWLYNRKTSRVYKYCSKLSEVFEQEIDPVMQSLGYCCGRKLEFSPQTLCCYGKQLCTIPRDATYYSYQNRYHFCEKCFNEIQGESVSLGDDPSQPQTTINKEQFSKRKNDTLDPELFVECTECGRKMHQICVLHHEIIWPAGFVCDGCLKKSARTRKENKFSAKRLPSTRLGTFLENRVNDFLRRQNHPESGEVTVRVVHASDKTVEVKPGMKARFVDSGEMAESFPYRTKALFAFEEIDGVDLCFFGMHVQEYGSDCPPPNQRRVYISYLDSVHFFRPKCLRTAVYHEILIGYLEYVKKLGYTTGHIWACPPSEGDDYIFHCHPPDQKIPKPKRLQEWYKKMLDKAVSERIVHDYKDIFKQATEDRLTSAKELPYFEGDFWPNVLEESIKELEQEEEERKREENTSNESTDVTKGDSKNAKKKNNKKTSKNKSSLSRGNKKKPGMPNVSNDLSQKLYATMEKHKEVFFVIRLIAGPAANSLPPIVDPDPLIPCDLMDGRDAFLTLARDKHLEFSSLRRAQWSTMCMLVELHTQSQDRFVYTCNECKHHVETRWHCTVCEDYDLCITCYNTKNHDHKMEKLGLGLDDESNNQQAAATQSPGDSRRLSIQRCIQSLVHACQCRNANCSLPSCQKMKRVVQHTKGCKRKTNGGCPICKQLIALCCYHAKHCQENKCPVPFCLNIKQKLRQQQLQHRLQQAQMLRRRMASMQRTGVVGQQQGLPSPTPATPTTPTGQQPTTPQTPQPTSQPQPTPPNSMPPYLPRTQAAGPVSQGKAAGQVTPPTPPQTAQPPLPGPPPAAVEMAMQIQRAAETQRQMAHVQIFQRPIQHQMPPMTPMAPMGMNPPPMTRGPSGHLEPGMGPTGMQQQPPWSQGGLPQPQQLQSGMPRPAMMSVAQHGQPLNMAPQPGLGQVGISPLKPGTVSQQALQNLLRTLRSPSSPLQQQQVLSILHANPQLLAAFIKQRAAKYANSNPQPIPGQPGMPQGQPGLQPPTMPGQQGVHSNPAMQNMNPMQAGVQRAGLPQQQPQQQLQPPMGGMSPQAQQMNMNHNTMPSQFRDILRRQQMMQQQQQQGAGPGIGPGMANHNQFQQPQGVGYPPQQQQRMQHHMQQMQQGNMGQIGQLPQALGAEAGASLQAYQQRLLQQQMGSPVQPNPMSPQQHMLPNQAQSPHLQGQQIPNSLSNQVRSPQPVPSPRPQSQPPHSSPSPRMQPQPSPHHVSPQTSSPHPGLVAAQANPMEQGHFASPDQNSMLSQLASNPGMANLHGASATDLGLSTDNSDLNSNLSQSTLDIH
UniProt Q13547: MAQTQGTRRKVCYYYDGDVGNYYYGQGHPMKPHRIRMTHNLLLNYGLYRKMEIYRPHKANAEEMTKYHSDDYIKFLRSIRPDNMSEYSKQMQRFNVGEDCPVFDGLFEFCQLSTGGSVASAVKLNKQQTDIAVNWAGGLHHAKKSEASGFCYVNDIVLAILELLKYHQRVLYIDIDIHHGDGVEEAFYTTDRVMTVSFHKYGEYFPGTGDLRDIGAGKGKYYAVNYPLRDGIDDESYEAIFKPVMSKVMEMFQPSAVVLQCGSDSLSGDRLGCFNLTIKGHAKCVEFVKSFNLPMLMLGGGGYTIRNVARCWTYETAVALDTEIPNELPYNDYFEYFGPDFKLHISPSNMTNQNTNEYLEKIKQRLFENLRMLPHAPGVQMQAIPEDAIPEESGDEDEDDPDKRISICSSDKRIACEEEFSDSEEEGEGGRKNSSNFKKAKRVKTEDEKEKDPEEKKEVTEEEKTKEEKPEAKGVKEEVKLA
RORγt (endogenous, human Th17 cells) (P51449-2, form named): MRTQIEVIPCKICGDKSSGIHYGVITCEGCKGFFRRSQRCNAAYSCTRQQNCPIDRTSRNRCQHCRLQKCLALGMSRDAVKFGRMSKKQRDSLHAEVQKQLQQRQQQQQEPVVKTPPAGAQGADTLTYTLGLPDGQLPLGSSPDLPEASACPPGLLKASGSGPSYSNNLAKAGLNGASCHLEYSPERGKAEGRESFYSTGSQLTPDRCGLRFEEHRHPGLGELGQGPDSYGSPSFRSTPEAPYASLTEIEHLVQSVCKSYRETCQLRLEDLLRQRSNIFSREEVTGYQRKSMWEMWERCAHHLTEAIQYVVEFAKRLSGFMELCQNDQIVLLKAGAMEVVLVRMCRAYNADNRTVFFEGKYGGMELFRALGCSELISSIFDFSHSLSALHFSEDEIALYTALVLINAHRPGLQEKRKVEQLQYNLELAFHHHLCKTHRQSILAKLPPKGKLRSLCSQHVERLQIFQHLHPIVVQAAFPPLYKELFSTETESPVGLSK

No constants are given. Whether binding was seen depends on the method and setting. Binding seen in cells or lysates may run through a third protein. Some binding calls cover weakened binding; strength is not graded here.

The target of one assay is HA-tagged p300 (UniProt Q09472). Put plainly: co-IP; tagged proteins cotransfected into HEK293T cells, harvested 48 h after transfection; lysis buffer 50 mM Tris-HCl pH 7.5, 150 mM NaCl, 1 mM Na2EDTA, 1% NP40, 0.5% NaDOC, 10% glycerol; IP with anti-tag antibody (anti-HA; anti-Myc or anti-Flag) and protein A/G-agarose at 4 °C, western blot.
A further assay addresses Myc-tagged HDAC1 (UniProt Q13547). Described as above.
Assay [1] deals with HDAC1 (endogenous, human Th17 cells) (human (endogenous in Th17 cells)) (UniProt Q13547). The assay is described as follows: co-IP; endogenous IP from human Th17 cells, western blot.
For assay [2], the target named is p300 (endogenous, human Th17 cells) (human (endogenous in Th17 cells)) (UniProt Q09472). The assay is described as above.

On to “Flag-tagged RORγt (from UniProt P51449-2 1-497)”, for which the binding entry with HA-tagged p300 and with Myc-tagged HDAC1 was “binds” each time.
As to “RORγt (endogenous, human Th17 cells) (from UniProt P51449-2 1-497)”, the binding entry in assay [1] and in assay [2] was “binds” in each case.
